# According to PubChem BioAssay AID256 (DTP/NCI, 2004):
# The list does not hold the whole screen: it gathers tests that were run many times, whatever their T/C, doses with no T/C, and many T/C values between a quarter and a half above the control. Other doses and runs of a compound stand elsewhere. T/C is the treated group as % of the vehicle group. Some entries give survivors of the animals treated and no T/C: the source files T/C as zero there, which appears to mark a toxic dose or a test without result, not a measured value. Some survivor counts are full or nearly so, which does not show that the dose was tolerated: the source hardly ever lists a survival T/C far under the control, and the zero likely stands for such cases as well. Survivors were counted at the toxicity check, usually on the fifth day, unless a day is given; later deaths do not show. Schedules are NCI's codes, read here as Q, the interval in days (D) or hours (H), X, the number of doses. Where survival is the endpoint, this PubChem deposit counts one and a half times the control or more as active, and values a quarter to a half above the control carry no call in these data; other NCI protocols may use other cut-offs.
# System: CD2F1 mice, L1210 leukemia ip, survival T/C
# Assay: NCI In Vivo Anticancer Drug Screen. Data for tumor model L1210 Leukemia (intraperitoneal) in CD2F1 (CDF1) mice
# Details: higher T/C = longer survival
# How it was run: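 Read-out first: treated-group measurement over vehicle-control measurement, expressed as a ratio. Animals bore a transplanted tumor line and were dosed with compound or vehicle.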
# [1] = T/C endpoint: mean survival time, dose: 100.0 mg/kg/injection, schedule: Q01DX001 (ip), vehicle: saline with Tween-80
# [2] = T/C endpoint: mean survival time, dose: 200.0 mg/kg/injection, schedule: Q04DX003 (ip), vehicle: saline with Tween-80
# [3] = T/C endpoint: mean survival time, dose: 400.0 mg/kg/injection, schedule: Q04DX003 (ip), vehicle: saline with Tween-80
# [4] = T/C endpoint: mean survival time, dose: 100.0 mg/kg/injection, schedule: Q04DX003 (ip), vehicle: saline with Tween-80
smiles,measurement,setting,value
S=C1OC(c2ccccc2)(c2ccccc2)c2ccsc21,survivor count,[1],2 of 3
NP(=O)(Oc1ccccc1)Oc1ccccc1,survivor count,"T/C endpoint: mean survival time, dose: 50.0 mg/kg/injection, schedule: Q01DX009 (ip), vehicle: saline with Tween-80",3 of 6
same,survivor count,"T/C endpoint: mean survival time, dose: 100.0 mg/kg/injection, schedule: Q01DX009 (ip), vehicle: saline with Tween-80",0 of 6
same,survivor count,[2],2 of 6
same,survivor count,[3],0 of 6
O=C(NO)c1ccc(O)c(O)c1O,survivor count,"T/C endpoint: mean survival time, dose: 200.0 mg/kg/injection, schedule: Q01DX009 (ip), vehicle: distilled water + Tween-80",3 of 6
CC/C(=N/NC(=O)c1ccccc1)c1ccccc1,survivor count,"T/C endpoint: mean survival time, dose: 200.0 mg/kg/injection, schedule: Q01DX009 (ip), vehicle: Klucel (hydroxypropylcellulose) (HPC)",5 of 6
same,survivor count,"T/C endpoint: mean survival time, dose: 400.0 mg/kg/injection, schedule: Q01DX009 (ip), vehicle: Klucel (hydroxypropylcellulose) (HPC)",0 of 6
CCC1OC(OC)C=CC1=O (configuration not stated),survivor count,"T/C endpoint: median survival time, dose: 200.0 mg/kg/injection, schedule: Q01DX009 (ip), vehicle: saline",0 of 6
C[N+]1(Cc2ccccc2)C2CCC1C(CCl)C(O)C2 (configuration not stated),survivor count,"T/C endpoint: mean survival time, dose: 100.0 mg/kg/injection, schedule: Q04DX003 (ip), vehicle: saline",0 of 3
same,survivor count,"T/C endpoint: mean survival time, dose: 200.0 mg/kg/injection, schedule: Q04DX003 (ip), vehicle: saline",0 of 3
same,survivor count,"T/C endpoint: mean survival time, dose: 400.0 mg/kg/injection, schedule: Q04DX003 (ip), vehicle: saline",0 of 3
C1CCC2OCCOCCOC3CCCCC3OCCOCCOC2C1 (configuration not stated),survivor count,"T/C endpoint: mean survival time, dose: 100.0 mg/kg/injection, schedule: Q01DX009 (ip), vehicle: Klucel (hydroxypropylcellulose) (HPC)",1 of 6
Cc1c(Cl)cccc1NC(=O)Oc1ccc(Cl)cc1Cl,survivor count,[3],6 of 6
Cn1cc(C2NC(=O)c3ccccc3N2)c2ccccc21 (configuration not stated),T/C,"T/C endpoint: median survival time, dose: 200.0 mg/kg/injection, schedule: Q01DX009 (ip), vehicle: Klucel (hydroxypropylcellulose) (HPC)",146 % of control
same,survivor count,"T/C endpoint: median survival time, dose: 400.0 mg/kg/injection, schedule: Q01DX009 (ip), vehicle: Klucel (hydroxypropylcellulose) (HPC)",3 of 6
Cc1ccccc1N,survivor count,"T/C endpoint: mean survival time, dose: 400.0 mg/kg/injection, schedule: Q01DX009 (ip), vehicle: saline with Tween-80",3 of 6
Cc1cccc(NC2=NCCO2)c1,survivor count,"T/C endpoint: mean survival time, dose: 400.0 mg/kg/injection, schedule: Q01DX001 (ip), vehicle: saline with Tween-80",0 of 6
CC1(C)C2CC=C(CCN=[N+]=[N-])C1C2 (configuration not stated),survivor count,[3],6 of 6
O=C(Nc1ccccc1)OC1CCCCC1OC(=O)Nc1ccccc1 (configuration not stated),survivor count,[1],6 of 6
same,survivor count,"T/C endpoint: mean survival time, dose: 200.0 mg/kg/injection, schedule: Q01DX001 (ip), vehicle: saline with Tween-80",6 of 6
Fc1ccc(/C=N\N=C(N/N=C/c2ccc(F)cc2)N/N=C/c2ccc(F)cc2)cc1,survivor count,[4],1 of 3
same,survivor count,[2],0 of 3
same,survivor count,[3],1 of 3
CC1(C)N=C(N)N=C(N)N1c1cccc(/C=C(\C#N)c2ccccc2)c1,survivor count,"T/C endpoint: mean survival time, dose: 400.0 mg/kg/injection, schedule: Q04DX002 (ip), vehicle: Klucel (hydroxypropylcellulose) (HPC)",0 of 3
O=C([S-])N1CCCCC1.O=C([S-])N1CCCCC1.[Ni+2],survivor count,[4],6 of 6
same,survivor count,[2],5 of 6
same,survivor count,[3],1 of 6
CC(=O)Nc1ccc(/C=N\NC(=O)CNC(=O)Nc2ccc(F)cc2)cc1,survivor count,"T/C endpoint: mean survival time, dose: 200.0 mg/kg/injection, schedule: Q01DX009 (ip), vehicle: saline with Tween-80",3 of 3
CCC[CH2][Sn]1([CH2]CCC)[O]C2C(CO)OC(n3ccc(=O)[nH]c3=O)C2[O]1 (configuration not stated),survivor count,"T/C endpoint: mean survival time, dose: 25.0 mg/kg/injection, schedule: Q01DX005 (ip), vehicle: other",2 of 6
C/C(Cl)=C\CNc1ncnc2c1ncn2C1OC(CO)C(O)C1O (configuration not stated),survivor count,"T/C endpoint: mean survival time, dose: 200.0 mg/kg/injection, schedule: Q01DX005 (ip), vehicle: distilled water + Tween-80",3 of 6
same,survivor count,"T/C endpoint: mean survival time, dose: 400.0 mg/kg/injection, schedule: Q01DX005 (ip), vehicle: distilled water + Tween-80",0 of 6
COC1=CCC(OC)=C(C)C1,survivor count,[2],6 of 6
same,survivor count,[3],1 of 6
COc1cccc(CC(C)N)c1OC (configuration not stated),survivor count,[2],0 of 6
same,survivor count,[3],0 of 6
CN(C)c1nc(N)nc(-c2cc[n+]([O-])cc2)n1,survivor count,"T/C endpoint: mean survival time, dose: 400.0 mg/kg/injection, schedule: Q04DX002 (ip), vehicle: saline",0 of 3
